PMC6986101

By UniProt entry, the sequences of proteins in these tests, tags left out. Where a name states a change or a piece, a line headed by the entry shows the natural chain unless it says otherwise. Residues count along the entry.
UniProt O43464: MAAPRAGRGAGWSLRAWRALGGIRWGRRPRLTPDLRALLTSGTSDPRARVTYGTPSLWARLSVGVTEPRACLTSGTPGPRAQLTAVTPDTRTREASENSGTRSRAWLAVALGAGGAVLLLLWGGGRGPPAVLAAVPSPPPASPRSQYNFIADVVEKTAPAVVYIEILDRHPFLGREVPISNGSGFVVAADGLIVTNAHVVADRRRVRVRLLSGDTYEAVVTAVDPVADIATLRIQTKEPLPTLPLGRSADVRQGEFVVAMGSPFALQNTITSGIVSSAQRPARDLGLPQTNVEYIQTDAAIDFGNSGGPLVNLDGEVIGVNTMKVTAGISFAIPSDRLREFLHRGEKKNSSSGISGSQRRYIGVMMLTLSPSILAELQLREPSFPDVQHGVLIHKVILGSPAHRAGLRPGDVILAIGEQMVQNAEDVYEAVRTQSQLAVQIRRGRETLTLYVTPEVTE
UniProt P31040, residues 43-664: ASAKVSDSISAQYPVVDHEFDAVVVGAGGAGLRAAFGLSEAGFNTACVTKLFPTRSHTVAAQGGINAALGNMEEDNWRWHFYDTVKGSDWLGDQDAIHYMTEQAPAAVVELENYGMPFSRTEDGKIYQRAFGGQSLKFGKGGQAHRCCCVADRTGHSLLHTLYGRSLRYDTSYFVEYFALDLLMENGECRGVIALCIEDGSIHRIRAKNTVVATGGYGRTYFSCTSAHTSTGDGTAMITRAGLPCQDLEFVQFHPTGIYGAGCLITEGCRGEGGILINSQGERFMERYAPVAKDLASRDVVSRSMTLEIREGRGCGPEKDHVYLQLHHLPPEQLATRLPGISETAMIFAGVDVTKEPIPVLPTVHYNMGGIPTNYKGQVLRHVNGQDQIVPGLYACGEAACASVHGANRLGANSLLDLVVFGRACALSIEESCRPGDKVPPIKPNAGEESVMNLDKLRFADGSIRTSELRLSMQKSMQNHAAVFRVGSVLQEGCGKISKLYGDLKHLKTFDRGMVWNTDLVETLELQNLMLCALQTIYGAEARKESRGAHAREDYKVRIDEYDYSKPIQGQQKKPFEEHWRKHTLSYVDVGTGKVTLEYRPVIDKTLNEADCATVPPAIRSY
UniProt P40939, residues 37-763: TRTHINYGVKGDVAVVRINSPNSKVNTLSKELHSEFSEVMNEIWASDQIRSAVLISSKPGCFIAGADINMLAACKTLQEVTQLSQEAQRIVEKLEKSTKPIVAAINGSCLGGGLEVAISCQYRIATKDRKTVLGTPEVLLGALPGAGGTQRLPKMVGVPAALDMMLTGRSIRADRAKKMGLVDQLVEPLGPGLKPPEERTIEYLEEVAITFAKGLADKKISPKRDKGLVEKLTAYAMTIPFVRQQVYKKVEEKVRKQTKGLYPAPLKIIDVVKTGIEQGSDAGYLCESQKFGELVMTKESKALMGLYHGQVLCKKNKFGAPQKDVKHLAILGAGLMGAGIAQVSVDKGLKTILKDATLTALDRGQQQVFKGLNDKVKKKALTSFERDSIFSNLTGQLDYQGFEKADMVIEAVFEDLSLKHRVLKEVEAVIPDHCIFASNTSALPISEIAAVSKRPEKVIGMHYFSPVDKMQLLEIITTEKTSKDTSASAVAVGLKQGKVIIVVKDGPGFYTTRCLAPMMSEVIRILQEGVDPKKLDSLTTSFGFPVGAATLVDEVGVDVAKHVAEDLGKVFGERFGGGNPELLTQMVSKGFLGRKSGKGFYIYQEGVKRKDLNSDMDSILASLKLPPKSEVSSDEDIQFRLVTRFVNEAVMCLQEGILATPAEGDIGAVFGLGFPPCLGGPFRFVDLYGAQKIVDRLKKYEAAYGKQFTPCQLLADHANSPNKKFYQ
UniProt Q9BXM7, residues 78-581: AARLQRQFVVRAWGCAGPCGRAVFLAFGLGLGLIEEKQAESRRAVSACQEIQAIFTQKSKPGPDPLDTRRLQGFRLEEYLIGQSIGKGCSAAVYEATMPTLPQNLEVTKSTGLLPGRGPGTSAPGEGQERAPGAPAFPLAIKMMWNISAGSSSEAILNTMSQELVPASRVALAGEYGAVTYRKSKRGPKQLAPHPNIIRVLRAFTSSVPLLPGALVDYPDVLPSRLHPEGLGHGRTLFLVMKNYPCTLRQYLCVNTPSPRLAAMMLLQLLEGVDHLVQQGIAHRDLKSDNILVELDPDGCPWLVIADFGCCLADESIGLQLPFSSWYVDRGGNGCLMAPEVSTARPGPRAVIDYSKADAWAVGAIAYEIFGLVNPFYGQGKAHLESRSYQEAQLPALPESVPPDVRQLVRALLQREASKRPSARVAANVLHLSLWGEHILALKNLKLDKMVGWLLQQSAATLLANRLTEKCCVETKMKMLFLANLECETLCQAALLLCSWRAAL
UniProt P30405, residues 30-207: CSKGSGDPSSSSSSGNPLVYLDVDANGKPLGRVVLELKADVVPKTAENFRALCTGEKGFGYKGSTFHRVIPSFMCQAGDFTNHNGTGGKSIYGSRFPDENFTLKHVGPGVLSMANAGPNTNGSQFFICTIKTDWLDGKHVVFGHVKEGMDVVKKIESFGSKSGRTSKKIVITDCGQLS
UniProt P15104: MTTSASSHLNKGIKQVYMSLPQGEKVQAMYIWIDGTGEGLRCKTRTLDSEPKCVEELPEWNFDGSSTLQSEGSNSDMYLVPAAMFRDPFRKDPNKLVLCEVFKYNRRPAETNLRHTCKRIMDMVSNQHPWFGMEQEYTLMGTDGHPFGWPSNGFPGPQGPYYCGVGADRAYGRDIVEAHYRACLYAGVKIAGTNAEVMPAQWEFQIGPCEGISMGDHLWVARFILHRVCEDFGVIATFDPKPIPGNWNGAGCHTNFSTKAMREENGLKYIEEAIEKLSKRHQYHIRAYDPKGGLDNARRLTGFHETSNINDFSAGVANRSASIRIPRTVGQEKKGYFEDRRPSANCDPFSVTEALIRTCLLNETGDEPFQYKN

Columns and labels:
Assay in all cases: affinity purification with mass spectrometry; anti-HA IP (Dynabeads-Protein G) from 1 mg clarified mitochondrial lysate of transfected HEK293T cells, overnight at 4 °C; lysis buffer 10 mM Tris-HCl pH 7.5, 50 mM NaCl, 1 mM EDTA, 1 mM DTT, 10% glycerol, 10 mM sodium molybdate, 0.1% Triton X-100; LC/MS/MS; list filtered for mitochondrial proteins with 4 or more unique peptides
[1] = molecular target: TRAP1 mutant ΔStrap with C-terminal HA tag (human) (UniProt Q12931)
[2] = molecular target: WT TRAP1 with C-terminal HA tag (pcDNA3.1 (+) MTS-TRAP1-HA) (human) (UniProt Q12931)
[3] = molecular target: T1, TRAP1 mutant E115A/R402A with C-terminal HA tag (human) (UniProt Q12931)
T1 sequence: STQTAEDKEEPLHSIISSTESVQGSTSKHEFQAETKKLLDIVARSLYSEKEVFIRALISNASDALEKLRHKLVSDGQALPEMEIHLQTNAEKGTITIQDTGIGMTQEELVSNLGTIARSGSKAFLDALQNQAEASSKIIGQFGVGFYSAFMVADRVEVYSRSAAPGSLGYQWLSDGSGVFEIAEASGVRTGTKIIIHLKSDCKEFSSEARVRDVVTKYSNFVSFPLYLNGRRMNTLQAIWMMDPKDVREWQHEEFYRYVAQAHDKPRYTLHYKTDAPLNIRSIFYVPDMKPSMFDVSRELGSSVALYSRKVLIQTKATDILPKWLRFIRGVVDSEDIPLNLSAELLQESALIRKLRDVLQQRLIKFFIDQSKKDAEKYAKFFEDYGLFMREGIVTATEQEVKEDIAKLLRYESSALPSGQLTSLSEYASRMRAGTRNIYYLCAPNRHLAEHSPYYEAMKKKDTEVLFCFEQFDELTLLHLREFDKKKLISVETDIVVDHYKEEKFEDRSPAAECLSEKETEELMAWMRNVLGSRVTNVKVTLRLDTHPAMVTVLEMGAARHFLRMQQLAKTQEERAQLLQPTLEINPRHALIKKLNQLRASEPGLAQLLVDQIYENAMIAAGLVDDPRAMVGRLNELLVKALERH

binding [1] | binding [2] | binding [3] | Substance
no binding | no binding | no binding | HTRA2 (from UniProt O43464)
 | binds |  | SDHA (from UniProt P31040 43-664) (enzyme)
 |  | no binding | glutamate dehydrogenase (human (endogenous in HEK293T)) (enzyme)
 |  | no binding | glutaminase (human (endogenous in HEK293T)) (enzyme)

Further lines, the substance ahead of its results:

Substance | binding [1] | binding [2] | binding [3]
ECHA (from UniProt P40939 37-763) (enzyme) | binds | binds | binds
PINK1 (from UniProt Q9BXM7 78-581) | no binding |  | no binding
cyclophilin D (from UniProt P30405 30-207) | no binding |  | no binding
glutamine synthase (from UniProt P15104 1-373) (enzyme) | no binding | no binding | no binding

Results are given in words; binding and its absence hold for the method and conditions named. Binding seen in cells or lysates may run through a third protein. A yes stands for co-enrichment or nearness to the bait. Other partners may have been found. No binding means not detected with the bait. For some of these results: Sequences can lack the tags named with a protein.
